Experimental data reported in PMC11480952.
These are yes or no findings as the source states them, for the method shown. In cells and extracts the contact can be indirect. A result given as binding can be weak or reduced; the word gives no strength.

Biological target: serine/threonine protein kinase ARAF (v-raf murine sarcoma 3611 viral oncogene homolog) (human (endogenous in liver cancer cells)) (UniProt P10398)
Assay: co-IP; co-immunoprecipitation with anti-ARAF, Western blot; liver cancer cells of the rLV group and the rLV-CARM1 (CARM1 overexpressing) group compared

binding: binds
Substance: GADD45 (human (endogenous in liver cancer cells))
